# Source: PubChem BioAssay AID493014 (National Center for Advancing Translational Sciences (NCATS), 2011)
# This is one part of the list. The main result of the screen is listed elsewhere. These columns were measured beside it and carry no call. The list favours compounds with an active or inconclusive main result. Words in brackets tell the shape of the fitted curve; partial curves, single points and poor fits give uncertain potencies.
# Experiment: qHTS Assay to Find Inhibitors of Chronic Active B-Cell Receptor Signaling
# Conditions: ABC-DLBCL IkBa-CBG/CBR reporter, luminescence ratio (green luciferase fused to IkBa over red control in TMD8 lymphoma cells), 4 h
# Summary of the method: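 Doxycycline induced both beetle luciferases in TMD8 lymphoma cells; IKK-driven degradation limits the IkappaBalpha-fused green signal, while red luminescence normalises for cell number and nonspecific effects. Compounds tested up to 46 uM, 4 hrs.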
# [1] = measured here: CBR red luminescence, cell number
# [2] = measured here: IkBa-CBG green luminescence
SMILES,AC50 [1],AC50 [2]
O=C(CCc1ccccc1)N(Cc1cccnc1)c1nc2ccc(F)cc2s1,"35.5 µM [falling, single point]",
Cc1ccccc1Nc1nc(N)c2ccccc2n1,"31.6 µM [falling, single point]",
COC(=O)c1c(NC(=O)CSc2nncs2)sc2c1CCCCC2,"7.94 µM [falling, partial curve, poor fit]",
Cc1ccc(O)c(C(CC(=O)NC(C)C)c2ccccc2)c1 (stereo not drawn),"11.2 µM [rising, partial curve, poor fit]",
COc1ccc(/C=C2/SC(=S)N(CCCC(=O)Nc3cccc(O)c3)C2=O)cc1,"2.24 µM [falling, full curve]",
CCn1nc(C)c(Br)c1-c1nc(-c2cccc(C)c2)no1,"1.78 µM [rising, full curve]",
Cc1cccc(N(CC(=O)NC2CCCC2)C(=O)CCCC(=O)Nc2ccccn2)c1,"3.66 µM [falling, partial curve, poor fit]",
NS(=O)(=O)c1ccc(CCNC(=O)CSc2nc3ccccc3c(=O)n2CCC(=O)N2CCCCC2)cc1,"20 µM [rising, single point]",
CCCn1c(=O)c(C(=O)NNC(=O)c2ccccc2Cl)c(O)c2ccccc21,"3.55 µM [falling, partial curve]",
COCCOC(=O)c1c(N)n(CCCN2CCOCC2)c2nc3ccccc3nc12,"15.8 µM [falling, single point]",
O=C(CCc1ccc(S(=O)(=O)NCc2ccccc2)cc1)NCc1ccc2c(c1)OCO2,"6.51 µM [falling, single point]",
CC1CCN(c2oc(-c3ccccc3Cl)nc2C#N)CC1,"5.62 µM [rising, single point]",
O=C(N/N=C/c1ccccc1C(F)(F)F)c1ccc2nc[nH]c2c1,"0.708 µM [falling, full curve, poor fit]",
Cc1nc(-c2cccc(C(F)(F)F)c2)sc1C(=O)O,"12.6 µM [falling, partial curve]","6.31 µM [rising, full curve, poor fit]"
Cc1ccc(OCc2cc(C(=O)NC(C)Cc3cccnc3)no2)cc1C (stereo not drawn),"25.1 µM [falling, single point]",
CCOC(=O)c1cnc(SCc2nc(N)nc(Nc3ccc(C)cc3)n2)nc1N,"0.13 µM [rising, full curve, poor fit]",
O=C(COc1ccc2ccc(=O)oc2c1)NC1CCCCC1,"29.1 µM [rising, single point]",
Cc1c(OC(C)C(=O)N[C@@H](Cc2ccccc2)C(=O)O)ccc2c3c(c(=O)oc12)CCCC3 (stereo partly drawn),"11.2 µM [falling, partial curve, poor fit]",
CCC(C)C(NC(=O)C1CCC(C)CC1)C(=O)Nc1cc(OC)ccc1OC (stereo not drawn),"20.6 µM [rising, partial curve]","32.6 µM [falling, partial curve, poor fit]"
COc1cccc(/C=N/n2nnnc2N)c1O,"15.8 µM [falling, single point]",
CN(CC(=O)Nc1ccc(Cl)c(C(F)(F)F)c1)C(=O)C1CC(=O)N(Cc2ccco2)C1 (stereo not drawn),"0.651 µM [rising, full curve, poor fit]",

# Reprinted at random: 2 entries already listed
SMILES,AC50 [1],AC50 [2]
CCOC(=O)c1cnc(SCc2nc(N)nc(Nc3ccc(C)cc3)n2)nc1N,"0.13 µM [rising, full curve, poor fit]",
Cc1c(OC(C)C(=O)N[C@@H](Cc2ccccc2)C(=O)O)ccc2c3c(c(=O)oc12)CCCC3 (stereo partly drawn),"11.2 µM [falling, partial curve, poor fit]",

# Next compounds

SMILES,AC50 [1],AC50 [2]
COC(=O)C1=C(C)NC(C)=C(C(=O)OCC2CCCO2)C1c1ccc(Cl)c([N+](=O)[O-])c1 (stereo not drawn),"28.2 µM [falling, single point]",
Cc1nc2cc(S(=O)(=O)N(C)C)ccc2n1-c1ccccc1,"35.5 µM [rising, single point]",
COC(C[C@@H]1O[C@@H]1[C@@H](O)[C@H](C)OCc1ccccc1)OC,"5.62 µM [falling, single point]",
O=C(N/N=C/C(Br)=C\c1ccccc1)c1ccc2nc[nH]c2c1,"5.17 µM [falling, single point]","25.9 µM [falling, partial curve, poor fit]"
S=c1[nH]c(-c2ccc(Cl)cc2)cs1,"1.78 µM [rising, full curve]",
Cc1cc(C(=O)COC(=O)c2ccccc2O)c(C)n1CC1CCCO1 (stereo not drawn),"0.164 µM [rising, full curve, poor fit]",
O=C(O)C1CCCCC1C(=O)Nc1ccc(-c2ccccc2)cc1 (stereo not drawn),"2.24 µM [rising, full curve, poor fit]",
O=C(CSC1=NCCS1)Nc1nc2ccccc2s1,"7.31 µM [falling, partial curve, poor fit]",
Nc1ccc(C(=O)OCc2nc3cc4ccccc4cc3[nH]2)cc1,"3.98 µM [falling, partial curve]",
COc1cccc(C(=O)Nc2cccnc2)c1,"29.1 µM [falling, partial curve, poor fit]",
O=[N+]([O-])c1ccc(N(c2ccccc2)c2ccccc2)cc1,"7.08 µM [rising, partial curve, poor fit]",
CCOC(=O)c1c(CSc2ccccc2)n(C)c2ccc(O)c(CN3CCOCC3)c12,"35.5 µM [falling, single point]",
CSCCOC(=O)C1=C(C)NC(=O)NC1c1ccc2c(c1)OCO2 (stereo not drawn),"35.5 µM [rising, partial curve, poor fit]",
CC(=O)c1ccc(N2CCN(C(=O)/C=C/c3ccc(S(=O)(=O)NCc4ccco4)cc3)CC2)cc1,"5.01 µM [falling, partial curve, poor fit]",
COc1ccccc1NC(=S)N/N=C1\CC(C)(C)Oc2ccc(O)cc21,"25.1 µM [falling, single point]","3.16 µM [falling, partial curve, poor fit]"
COc1ccc(C2CC(c3ccncc3)=NN2c2ccc(S(N)(=O)=O)cc2)cc1 (stereo not drawn),,"20.6 µM [falling, partial curve]"
CN(C)c1ccc(C(CC(=O)O)C(=O)O)cc1 (stereo not drawn),"2.51 µM [rising, full curve, poor fit]",
CCC1S/C(=C(\C#N)C(=O)NCc2ccco2)N(c2ccc(F)cc2)C1=O (stereo not drawn),"31.6 µM [falling, partial curve, poor fit]",
C/C(=N\Nc1nc(N)cc(Cl)n1)c1ccc(F)cc1,"1.58 µM [rising, partial curve]",
Cc1ccc2c(CC(=O)NNC(=O)c3ccccc3O)coc2c1,"29.1 µM [falling, single point]",
O=C(NNc1cc(N2CCOCC2)nc(N2CCOCC2)n1)C12CC3CC(CC(C3)C1)C2,"32.6 µM [rising, single point]",

SMILES,AC50 [1],AC50 [2]
COc1cc(C(=O)OCc2cc(=O)n3ccsc3n2)ccc1OC(C)C,"6.51 µM [rising, single point]",
Cc1ccc(C2=NN(C(=O)c3cccs3)C(c3ccccc3O)C2)cc1 (stereo not drawn),"7.08 µM [falling, full curve, poor fit]",
CCOC(=O)c1cnn(-c2cccc(Cl)c2)c1N,"2.31 µM [rising, partial curve]",
COc1ccc(OC)c(Nc2ncnc3c2cnn3-c2cccc(C)c2)c1,"3.26 µM [falling, full curve]",
CN(Cc1ccccc1N1CCCC1)C(=O)c1cc2ccccc2o1,"0.651 µM [falling, partial curve, poor fit]",
Cc1ccc(SCC(=O)Nc2ccc(N3CCN(C)CC3)c(F)c2)cc1,"14.1 µM [falling, partial curve, poor fit]",
CNC(=S)N/N=C(\C)c1ccc(-n2ccnc2)cc1,"23.1 µM [falling, partial curve]",
CCC(=NCCc1c(C)[nH]c2ccc(C)cc12)C1=C(O)CC(c2ccccc2)CC1=O (stereo not drawn),"25.9 µM [rising, partial curve, poor fit]","23.1 µM [falling, partial curve, poor fit]"
O=C(CCCNC(=O)/C(=C/c1ccc(Br)cc1)NC(=O)c1ccccc1)OCc1ccccc1,"16.4 µM [rising, single point]",
Cc1ccn2cc(C(=O)NCc3ccco3)nc2c1,"10 µM [falling, partial curve, poor fit]",
O=C(Nc1ccc(C(=O)Oc2ccccc2)c(O)c1)c1ccccc1,"6.31 µM [falling, single point]","6.31 µM [rising, partial curve, poor fit]"
CSc1ccc(/C=N/NC(=O)c2cc(O)cc(O)c2)cc1,"8.2 µM [falling, partial curve]",
Cc1cc(OCC(O)CN2C(C)CCCC2C)ccc1C(C)C (stereo not drawn),"35.5 µM [falling, single point]",
Cc1cccc(OCC(=O)Nc2ccc3c(c2)OCCO3)c1,"0.00411 µM [rising, full curve, poor fit]",
N=C(N)SCc1ccc(Cl)cc1Cl,"23.1 µM [falling, single point]",
CNc1c(NC(=O)c2ccc3c(c2)OCO3)c(=O)oc2ccccc12,"12.6 µM [falling, partial curve]",
COc1ccc(/C=C(\C#N)C(=O)NCc2ccccc2)cc1O,"20 µM [falling, partial curve, poor fit]",
Brc1ccc(NC(c2ccccc2)c2ccncc2)cc1 (stereo not drawn),"35.5 µM [rising, single point]",
COCCCNC(=O)C1CCN(Cc2cc3ccccc3n2Cc2cccc(Cl)c2)CC1,"14.1 µM [falling, single point]",
Cc1cccc(OCC2=NS(=O)(=O)c3ccccc3N2)c1,"35.5 µM [falling, single point]",

# Taken from the listing for reference:
SMILES,AC50 [1],AC50 [2]
N=C(N)SCc1ccc(Cl)cc1Cl,"23.1 µM [falling, single point]",
CNc1c(NC(=O)c2ccc3c(c2)OCO3)c(=O)oc2ccccc12,"12.6 µM [falling, partial curve]",
COc1ccc(/C=C(\C#N)C(=O)NCc2ccccc2)cc1O,"20 µM [falling, partial curve, poor fit]",
